PubChem BioAssay AID652272, Drosophila RNAi Screening Center | 2013
Screen: 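Genome-wide knock-down search for components of Hedgehog signalling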 (primary screen). System: Drosophila clone 8 (Cl8) cells. Reagent: long dsRNA against Drosophila genes. Measurement: 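Firefly light from a Hedgehog-responsive ptc promoter reporter and Renilla reference light, both read on a plate reader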. Reading the numbers: firefly Hh reporter signal: higher = more ptc reporter light; Renilla reference signal: higher = more Renilla control light. Hit rule: 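Called a hit if the two-replicate mean z-score lies below -2 or above +3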. Calls: active = hit: reporter lowered or raised; inactive = not a hit.
The screen tested about 21,000 reagents; below is an unselected part of those with a known target gene and a result. In the full data, 503 (2.4%) were called active. 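Raw plate light values, not normalised; calls rest on replicate z-scores that were not deposited; hits include reporter decreases as well as increases.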 Reagents against one gene are numbered here. Names joined by + are all predicted targets of the reagent. The record does not give: the amount of reagent, the time to read-out.

| target | reagent | firefly Hh reporter signal, replicate 1 | firefly Hh reporter signal, replicate 2 | firefly Hh reporter signal, replicate 3 | Renilla reference signal, replicate 1 | Renilla reference signal, replicate 2 | activity call |
| --- | --- | --- | --- | --- | --- | --- | --- |
| Or85f | 1 | 77648 | 84400 | – | 2337 | 2609 | inactive |
| fz2 | 1 | 2.37e5 | – | – | 4419 | – | inactive |
| fz2 | 2 | 1.20e5 | 5.65e5 | 76608 | 4836 | 33896 | inactive |
| fz2 | 3 | 67275 | 95755 | – | 2231 | 2637 | inactive |
| cno | 1 | 1.55e5 | – | – | 3163 | – | inactive |
| cno | 2 | 52374 | 42864 | – | 2384 | 1691 | inactive |
| CG10512 | 1 | 69280 | 1.35e5 | – | 1904 | 3639 | inactive |
| CG30423 | 1 | 1.21e5 | 2.52e5 | – | 3149 | 11013 | inactive |
| CG7149 | 1 | 1.89e5 | 71696 | – | 6389 | 3344 | inactive |
| AstCC | 1 | 1.18e5 | 62825 | – | 3025 | 6108 | inactive |
| CG13365 | 1 | 1.32e5 | 2.94e5 | – | 4753 | 11436 | inactive |
| NELF-B | 1 | 62400 | 52451 | – | 2387 | 1680 | inactive |
| spel1 | 1 | 1.94e5 | 78065 | – | 4584 | 7202 | inactive |

The list goes on (2 carried over from the part before).
| target | reagent | firefly Hh reporter signal, replicate 1 | firefly Hh reporter signal, replicate 2 | firefly Hh reporter signal, replicate 3 | Renilla reference signal, replicate 1 | Renilla reference signal, replicate 2 | activity call |
| --- | --- | --- | --- | --- | --- | --- | --- |
| NELF-B | 1 | 62400 | 52451 | – | 2387 | 1680 | inactive |
| spel1 | 1 | 1.94e5 | 78065 | – | 4584 | 7202 | inactive |
| Gbs-76A | 1 | 1.34e5 | 73365 | – | 5539 | 2912 | inactive |
| rho-7 | 1 | 1.01e5 | 69304 | – | 2624 | 5401 | inactive |
| bsh | 1 | 4.32e5 | 77264 | – | 4297 | 4297 | inactive |
| ens | 1 | 1.74e5 | 99683 | – | 6306 | 4107 | inactive |
| CG9837 | 1 | 93589 | 1.23e5 | – | 4114 | 3280 | inactive |
| ACXA | 1 | 1.66e5 | 63379 | – | 4336 | 6117 | inactive |
| Rh4 + sina | 1 | 1.21e5 | 55162 | – | 4845 | 2512 | inactive |
| G6P | 1 | 1.20e5 | 90704 | – | 2708 | 2529 | inactive |
| Vha36-1 | 1 | 1.05e5 | 1.16e5 | – | 4932 | 4213 | inactive |
| Rpt3 | 1 | 68400 | 41773 | – | 4192 | 1644 | inactive |
| CG32679 | 1 | 5.74e5 | 2.16e5 | – | 31542 | 4521 | inactive |
| CG5793 | 1 | 6.57e5 | 1.20e5 | – | 43202 | 743 | inactive |
| RPA2 | 1 | 76231 | 61904 | – | 3109 | 2580 | inactive |
| Wnt4 | 1 | 2.54e5 | 88534 | – | 14327 | 4640 | inactive |
| Wnt4 | 2 | 1.22e5 | 47104 | – | 3041 | 5399 | inactive |
| TMEM216 + CG11760 | 1 | 1.33e5 | 1.16e5 | – | 5793 | 4533 | inactive |
| CG43336 | 1 | 1.44e5 | 1.18e5 | – | 4738 | 3117 | inactive |
| CG14191 | 1 | 1.01e5 | 2.92e5 | – | 1536 | 13098 | inactive |
| Arc42 | 1 | 6.81e5 | 1.39e5 | – | 34563 | 4035 | inactive |
| Arc42 | 2 | 8.73e5 | 2.38e5 | – | 43699 | 5991 | inactive |
| Mp | 1 | 1.63e5 | 1.50e5 | – | 6857 | 6161 | inactive |
| Mp | 2 | 64900 | 72728 | – | 6087 | 5101 | inactive |
| Mp | 3 | 43350 | 47545 | – | 4710 | 3668 | inactive |
| CG10514 | 1 | 5.90e5 | 1.11e5 | – | 24883 | 3445 | inactive |
| twz | 1 | 66104 | 41164 | – | 1968 | 3571 | inactive |
| Nup62 | 1 | 90860 | 57136 | – | 4507 | 2472 | inactive |
